Measurements published in patent US20190330291A1.
Results are given in words; binding and its absence hold for the method and conditions named. Binding seen in cells or lysates may run through a third protein. Some binding calls cover weakened binding; strength is not graded here. For some of these results: Where a sequence is shown, tags or fusion partners need not be part of it.

Amino acid sequences for entries named in this document (tags omitted). A change or cut given only in a name is not applied to a line headed by its entry.
UniProt Q9UBP4: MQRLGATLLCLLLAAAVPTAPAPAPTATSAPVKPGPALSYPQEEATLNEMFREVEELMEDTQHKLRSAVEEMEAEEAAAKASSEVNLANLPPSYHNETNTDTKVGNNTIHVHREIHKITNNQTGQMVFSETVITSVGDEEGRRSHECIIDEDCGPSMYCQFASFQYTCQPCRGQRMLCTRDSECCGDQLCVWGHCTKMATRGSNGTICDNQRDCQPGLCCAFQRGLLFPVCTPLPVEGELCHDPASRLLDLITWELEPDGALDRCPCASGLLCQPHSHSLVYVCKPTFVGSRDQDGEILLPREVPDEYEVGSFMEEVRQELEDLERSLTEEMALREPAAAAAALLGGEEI

Columns and labels:
[1] = molecular target: T1, human TGFβRI-ECD with C-terminal His Tag (human) (UniProt P36897); test: co-expression in FreeStyle 293F cells, His-tag pull-down on Ni magnetic beads, SDS-PAGE
T1 sequence: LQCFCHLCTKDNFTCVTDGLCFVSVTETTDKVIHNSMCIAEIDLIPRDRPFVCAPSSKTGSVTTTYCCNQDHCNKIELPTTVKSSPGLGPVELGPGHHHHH

[2] = molecular target: T2, extracellular domain of the TGFβ type I receptor found in the culture supernatant of human monocyte-derived dendritic cell-like cells (human) (UniProt P36897); test: pull-down from culture supernatant on REIC-coated magnetic beads, trypsin digest, HPLC/QTOF mass analysis
T2 sequence (looked up): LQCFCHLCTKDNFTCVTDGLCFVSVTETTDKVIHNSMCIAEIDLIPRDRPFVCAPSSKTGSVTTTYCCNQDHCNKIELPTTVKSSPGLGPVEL

Substance | binding [1] | binding [2]
full-length REIC/Dkk-3 protein (human FL-REIC, secreted from FreeStyle 293 cells) (from UniProt Q9UBP4 22-350) (ligand) | binds | binds
REIC-17 kDa (Cys-rich domain protein of REIC/Dkk-3) (from UniProt Q9UBP4 22-288) (ligand) | binds | –
REIC C domain (partial protein obtained by deleting 120 amino acids at the N-terminal from the full-length REIC/Dkk-3 protein) (from UniProt Q9UBP4 142-350) (ligand) | binds | –
